3 molecules from PMC7411133, “Phosphorylations of the Abutilon Mosaic Virus Movement Protein Affect Its Self-Interaction, Symptom Development, Viral DNA Accumulation, and Host Range” (Frontiers in Plant Science, 2020) can be followed below.

Common to all, as to assay: FRET or BRET; acceptor photobleaching FRET in living N. benthamiana leaf epidermal cells, 3 dpai; acceptor mVenus, donor mTurquoise2; four layouts (NN, NC, CN, CC); without and with local AbMV (DNA-A + DNA-BΔMP) infection; ROIs along the plasma membrane; p19 co-infiltrated
The target of assay [1] is AbMV movement protein, full-length, wild type (MP^WT), fused to mVenus or mTurquoise2 (Abutilon mosaic virus) (UniProt P21946).
For assay [2], the target named is AbMV movement protein, full-length, T221A/S223A/S250A (MP^AAA), fused to mVenus or mTurquoise2 (Abutilon mosaic virus) (UniProt P21946).
Assay [3] deals with AbMV movement protein, full-length, T221D/S223D/S250D (MP^DDD), fused to mVenus or mTurquoise2 (Abutilon mosaic virus) (UniProt P21946).

Results are given in words; binding and its absence hold for the method and conditions named. Binding seen in cells or lysates may run through a third protein. Some results given as binding are weak or reduced against the parent protein; the word gives no strength. Tags and fused reporters may be left off the sequences shown.

B1: AbMV movement protein, full-length, wild type (MP^WT), fused to mVenus or mTurquoise2 (natural protein)
chain: MDSQLVNPPNAFNYIESHRDEYQLSHDLTEIILQFPSTAAQLTARLSRSCMKIDHCVIEYRQQVPINATGSVIVEIHDKRMTDNESLQASWTFPIRCNIDLHYFSASFFSLKDPIPWKLYYKVCDTNVHQRTHFAKFKGKLKLSTAKHSVDIPFRAPTVRILSKQFSEKDVDFSHVDYGKWERKPIRCASMSRIGLRGPIEIRPGESWASRSTIGTAQPDTDSEMENELHPYRHLNRLGTSLLDPGESASIVGDQRAEPNITMSMGQLNELVRTAVQECVNSNCQASQAKSLK
notes: Movement protein (MP; BC1) of Abutilon mosaic virus, full-length; Two copies expressed from one T-DNA (pFRETtv-2-in-1), one with mVenus and one with mTurquoise2, in four layouts (NN, NC, CN, CC); each copy carries one fluorescent protein at one end; also called BC1; mVenus::MP^WT; source: N. benthamiana leaf epidermis, transiently expressed after agro-infiltration, in living cells; not shown: …
On to B1, for which the binding result in assay [1] is listed as “binds”.

B2: AbMV movement protein, full-length, T221A/S223A/S250A (MP^AAA), fused to mVenus or mTurquoise2 (natural protein, Abutilon mosaic virus, UniProt P21946 1-293, looked up)
chain: MDSQLVNPPNAFNYIESHRDEYQLSHDLTEIILQFPSTAAQLTARLSRSCMKIDHCVIEYRQQVPINATGSVIVEIHDKRMTDNESLQASWTFPIRCNIDLHYFSASFFSLKDPIPWKLYYKVCDTNVHQRTHFAKFKGKLKLSTAKHSVDIPFRAPTVRILSKQFSEKDVDFSHVDYGKWERKPIRCASMSRIGLRGPIEIRPGESWASRSTIGTAQPDADAEMENELHPYRHLNRLGTSLLDPGESAAIVGDQRAEPNITMSMGQLNELVRTAVQECVNSNCQASQAKSLK
notes: Movement protein (MP; BC1) of Abutilon mosaic virus, full-length; Two copies expressed from one T-DNA (pFRETtv-2-in-1), one with mVenus and one with mTurquoise2, in four layouts (NN, NC, CN, CC); each copy carries one fluorescent protein at one end; also called mVenus::MP^AAA; MP^AAA::mVenus; source: N. benthamiana leaf epidermis, transiently expressed after agro-infiltration, in living cells; …
Regarding B2, the binding result in assay [2] is recorded as “binds”.

B3: AbMV movement protein, full-length, T221D/S223D/S250D (MP^DDD), fused to mVenus or mTurquoise2 (natural protein, Abutilon mosaic virus, UniProt P21946 1-293, looked up)
chain: MDSQLVNPPNAFNYIESHRDEYQLSHDLTEIILQFPSTAAQLTARLSRSCMKIDHCVIEYRQQVPINATGSVIVEIHDKRMTDNESLQASWTFPIRCNIDLHYFSASFFSLKDPIPWKLYYKVCDTNVHQRTHFAKFKGKLKLSTAKHSVDIPFRAPTVRILSKQFSEKDVDFSHVDYGKWERKPIRCASMSRIGLRGPIEIRPGESWASRSTIGTAQPDDDDEMENELHPYRHLNRLGTSLLDPGESADIVGDQRAEPNITMSMGQLNELVRTAVQECVNSNCQASQAKSLK
notes: Movement protein (MP; BC1) of Abutilon mosaic virus, full-length; Two copies expressed from one T-DNA (pFRETtv-2-in-1), one with mVenus and one with mTurquoise2, in four layouts (NN, NC, CN, CC); each copy carries one fluorescent protein at one end; also called mVenus::MP^DDD; MP^DDD::mVenus; source: N. benthamiana leaf epidermis, transiently expressed after agro-infiltration, in living cells; …
With B3, the binding entry in assay [3] is “binds”.
